Assay results taken from PubChem BioAssay AID588590 (National Center for Advancing Translational Sciences (NCATS), 2011).
Where “and” joins values, the source holds several entries; their conditions need not be identical. Equal values may be shown once. The campaign covered roughly 390,000 compounds. About 4,000 (1%) were called active. This list was built around the results that the source calls inconclusive (neither active nor inactive); the mix of calls is not that of the screen. The call rests on the fitted dose curve; in most records, active means well fitted inhibition curve with a large enough effect; inconclusive means small, poorly fitted or top-dose-only effect, or another doubt; inactive means no such curve, though single readings can be large or run the other way. Potencies of inconclusive entries are doubtful fits and often do not repeat.

Amino acid sequences for entries named in this document (tags omitted). A change or cut given only in a name is not applied to a line headed by its entry.
UniProt Q9UNA4: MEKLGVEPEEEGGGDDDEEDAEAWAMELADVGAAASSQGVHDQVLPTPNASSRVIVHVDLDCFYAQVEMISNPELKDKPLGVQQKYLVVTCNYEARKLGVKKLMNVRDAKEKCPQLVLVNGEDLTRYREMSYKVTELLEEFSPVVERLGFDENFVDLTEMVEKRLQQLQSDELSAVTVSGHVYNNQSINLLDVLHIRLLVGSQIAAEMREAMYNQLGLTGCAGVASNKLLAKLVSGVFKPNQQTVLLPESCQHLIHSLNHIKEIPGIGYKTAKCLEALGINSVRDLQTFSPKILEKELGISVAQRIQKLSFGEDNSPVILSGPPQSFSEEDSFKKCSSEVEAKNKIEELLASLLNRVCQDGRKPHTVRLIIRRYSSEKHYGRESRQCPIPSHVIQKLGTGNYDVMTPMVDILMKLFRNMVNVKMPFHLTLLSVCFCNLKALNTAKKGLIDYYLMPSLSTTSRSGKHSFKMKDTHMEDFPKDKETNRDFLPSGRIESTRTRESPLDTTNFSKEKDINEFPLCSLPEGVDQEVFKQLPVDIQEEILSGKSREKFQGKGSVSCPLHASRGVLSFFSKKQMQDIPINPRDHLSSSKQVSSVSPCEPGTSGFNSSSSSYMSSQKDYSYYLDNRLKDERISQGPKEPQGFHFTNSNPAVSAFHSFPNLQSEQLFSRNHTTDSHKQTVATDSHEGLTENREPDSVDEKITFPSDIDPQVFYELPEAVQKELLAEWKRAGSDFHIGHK

These compounds were tested against DNA polymerase iota (Homo sapiens) (UniProt Q9UNA4) (assay: qHTS for Inhibitors of Polymerase Iota). Conditions: Pol iota fluorescent replication assay, 10 min; series mostly up to 115 µM; activity, negative = inhibition: at the top concentration.
Outline: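 Pol iota at 10 nM preincubated 15 min with compounds at room temperature; reaction started with fluorescent substrate, 50 nM final. Fluorescence read kinetically at 0 and 10 min; buffer-only wells as negative control.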
Potency means the concentration at half of the fitted maximal effect.

activity, negative = inhibition, inactive:
O=C(NC1CCCCC1)c1sc(=S)n2c1[nH]c(=O)c1ccccc12 -24.7%
COc1ccc(N(C(=O)c2ccc(C)cc2)S(=O)(=O)c2ccc(Cl)cc2)cc1 15.8%
CCOc1ccccc1NC(=O)c1c(NC(=O)Cc2ccccc2)sc2c1CCCC2 29.2%
CCOC(=O)CSc1nc(N)c(C#N)c(-c2ccc(OC)cc2)c1C#N 32.8%
COc1ccc(C(=O)NCC(=O)OCC(=O)Nc2ncc(Cl)cc2Cl)cc1[N+](=O)[O-] 19.2%
O=C(O)C1C2C=CC(C2)C1C(=O)NCCc1ccncc1 (stereo not given) -12.8%
O=C(CCc1nc2ccccc2c(=O)[nH]1)Nc1ccc(F)c([N+](=O)[O-])c1 49%
COc1cc2c(cc1OC)C(COc1ccccc1OC)N(C(=O)c1ccc(S(=O)(=O)N3CCCC3)cc1)CC2 (stereo not given) -1.88%
O=C(Nc1ccccc1O)c1ccc2c(c1)C(=O)N(N1C(=O)c3ccccc3C1=O)C2=O 6.87%
CCCCOc1ccc(S(=O)(=O)Nc2ccc(-c3ccc(N4CCCCC4)nn3)cc2)cc1 -24.3%
CCC(=O)Nc1cc(-c2nc3cc(C)cc(C)c3o2)ccc1C -0.951%
COc1ccc(S(=O)(=O)N2CCC(C(=O)NCC3CCCO3)CC2)cc1Cl (stereo not given) 25.8%
O=C(COC(=O)C1CC2C=CC1C2)NCc1ccc(F)cc1 (stereo not given) 21.3%
CCN(CC)CCNC(=O)c1sc2nc(C)cc(C)c2c1-n1cccc1 -16.6%

Potency, active:
Cc1cccc2c1-c1sc(C(=O)Nc3ccccc3C(N)=O)cc1CO2 79.4 µM

Potency, inconclusive:
COc1ccc(/C=C\C(=O)c2c(O)ccc3c(C)cc(=O)oc23)cc1OC 14.1 µM [inhibitor, full curve] and 10 µM [inhibitor, partial curve, poor fit]
CCc1ccc(NS(=O)(=O)c2ccc3[nH]cc(C(=O)N4CCCCCC4)c(=O)c3c2)cc1 89.1 µM [inhibitor, single point]
CCCC(C(=O)Nc1ccc(S(=O)(=O)N2CCOCC2)cc1)c1ccccc1 (stereo not given) 79.4 µM [inhibitor, partial curve]
CC(Sc1nc(N)cc(=O)[nH]1)C(=O)N1CCOCC1 (stereo not given) 100 µM [inhibitor, single point]
Cc1nc(NC(=O)C(Cl)Cl)sc1C(=O)N(C)C 39.8 µM [inhibitor, full curve, poor fit]
COc1ccc(N=C2NC(=O)/C(=C\C=C\c3ccco3)S2)cc1 6.31 µM [inhibitor, full curve, poor fit]
COc1cc2c(cc1OC)-c1cc(Nc3ccc(F)cc3)nc(=O)n1CC2 28.2 µM [inhibitor, single point]
CC(=O)Oc1ccc(N(C(C)=O)S(=O)(=O)c2cccs2)c2ccccc12 35.5 µM [inhibitor, single point]
COC(=O)c1c(C)sc(-c2c(-c3ccc(F)cc3)[nH]c3[nH]c(=O)[nH]c(=O)c23)c1O 44.7 µM [inhibitor, full curve, poor fit]
O=C(Oc1ccc(-c2cnc3ccccc3n2)cc1)c1ccc(Br)o1 7.94 µM [inhibitor, full curve, poor fit]
CNC(=S)NNC(=O)c1oc2nc(-c3ccccc3)cc(C)c2c1N 5.62 µM [inhibitor, partial curve, poor fit]
O=[N+]([O-])c1ccc(N/N=C/c2ccc(O)c(O)c2O)c(S(=O)(=O)N2CCOCC2)c1 3.98 µM [inhibitor, full curve, poor fit]
Cc1ccccc1SCC(=O)Nc1ccc(N2CCOCC2)cc1 14.1 µM [inhibitor, partial curve, poor fit]
O=C(Cc1ccccc1)N1CCC(O)(c2cccnc2)CC1 39.8 µM [inhibitor, single point]
CC(C)(CNC(=O)C1CCN(S(=O)(=O)c2cc([N+](=O)[O-])ccc2Cl)CC1)N1CCOCC1 11.2 µM [inhibitor, partial curve, poor fit]
Cc1ccc(-c2csc(N3CCN(c4cc5c(cc4Cl)nc(-c4ccncc4)n5CCN4CCCCC4)CC3)n2)cc1 20 µM [inhibitor, full curve, poor fit]
Cc1cc(C(=O)Nc2c(C)n(C)n(-c3ccccc3)c2=O)c2ccccc2n1 39.8 µM [inhibitor, single point]
CN1CC[C@H](c2c(O)cc(O)c3c(=O)cc(-c4ccccc4Cl)oc23)[C@@H](O)C1 50.1 µM [inhibitor, partial curve, poor fit]
CCOC(=O)c1sc(NC(=O)C2C3C=CC(C3)C2C(=O)O)nc1C (stereo not given) 50.1 µM [inhibitor, partial curve]
Cc1cnc(C(=O)Nc2nccs2)cn1 31.6 µM [inhibitor, single point]
CC(=O)Nc1ccc(Nc2nc(Nc3ccc(Cl)cc3)nc(N3CCOCC3)n2)cc1 100 µM [inhibitor, partial curve, poor fit]
C#CCOCCOCCOCCNc1nc(N2CCN(C(=O)CCCCCCCCCCNC(=O)[C@H](CCCCN)n3cc(CCO)nn3)CC2)nc(N2CCN(C(=O)CCCCCCCCCCNC(=O)[C@H](CCCCN)n3cc(CCCC(=O)O)nn3)CC2)n1 22.4 µM [inhibitor, single point]
CCN(CC)S(=O)(=O)c1ccc(N2CCOCC2)c(NC(=O)c2cccc3c(=O)c(C)c(-c4ccccc4)oc23)c1 89.1 µM [inhibitor, partial curve, poor fit]
COc1ccc(Br)cc1C(=O)Nc1cccc(-c2nnc(-c3ccco3)o2)c1 39.8 µM [inhibitor, partial curve, poor fit]
C[C@@]12C(=O)Nc3ccc(Br)cc3C(=O)N1[C@H]1c3cc(Br)ccc3OC[C@@H]1[C@@H]2c1ccccc1 25.1 µM [inhibitor, partial curve, poor fit]
O=C(CN1CCN(c2ccccc2O)CC1)Nc1cc([N+](=O)[O-])ccc1Cl 50.1 µM [inhibitor, partial curve]
N#CCCn1c(Cl)nc2ccccc21 14.1 µM [inhibitor, partial curve, poor fit]
O=C(c1ccccc1NS(=O)(=O)c1cccc(C(F)(F)F)c1)N1CCc2ccccc21 79.4 µM [inhibitor, partial curve, poor fit]
COc1ccc2[nH]c3c(=O)n(/N=C/c4ccc(OC)c(CN5CCCC5)c4)c(C)nc3c2c1 70.8 µM [inhibitor, partial curve]
Cc1ccc(C(=O)N/N=C/c2cccc(OC(=O)/C=C/c3ccco3)c2)cn1 28.2 µM [inhibitor, full curve, poor fit]
CCc1ccccc1NC(=O)CN(C)C(=O)c1cc(C2CC2)nn1-c1ccccc1 89.1 µM [inhibitor, partial curve]
Cc1cc(Br)ccc1OCCOCCN1CCCC1 39.8 µM [inhibitor, single point]
COC(=O)[C@@]12CCCN1[C@H](c1ccc(-c3ccccc3)cc1)[C@H]1C(=O)N(C)C(=O)[C@H]12 0.794 µM [inhibitor, partial curve, poor fit]
O=C(CSc1nc2ccccc2c(=O)n1Cc1ccc(C(=O)NC2CC2)cc1)NCc1ccco1 112 µM [inhibitor, partial curve, poor fit]
CCC(=O)Nc1ccc(C=C(C(C)=O)C(C)=O)cc1 2.82 µM [inhibitor, partial curve, poor fit]
CC(=O)c1sc(NC(=O)c2ccc(Cn3cc(Br)cn3)o2)nc1C 44.7 µM [inhibitor, partial curve, poor fit]
O=C(Nc1ccc(Br)cc1F)c1ccc2nc(CCc3ccccc3)oc2c1 44.7 µM [inhibitor, single point]
NNc1nc2c(Cl)ccc(Cl)c2s1 28.2 µM [inhibitor, partial curve]
N#CCC(=O)N/N=C/c1cc([N+](=O)[O-])ccc1N1CCOCC1 12.6 µM [inhibitor, partial curve]
COCCCNC(=O)c1sc2nc(C)c(C(=O)Nc3ccc(Cl)cc3)c(-c3ccc(Br)cc3)c2c1N 79.4 µM [inhibitor, single point]
CC1=NN(Cc2cc(C(C)(C)C)c(O)c(C(C)(C)C)c2)C(=O)C1 25.1 µM [inhibitor, single point]
O=C(N/N=C/c1cccc([N+](=O)[O-])c1)c1cc(-c2ccc3c4c(cccc24)CC3)n[nH]1 39.8 µM [inhibitor, partial curve, poor fit]
Cc1cc2cc(CN(Cc3ccc4c(c3)OCO4)C(=O)c3ccco3)c(=O)[nH]c2cc1C 11.2 µM [inhibitor, partial curve, poor fit]
CCc1nnc(NC(=O)c2ccc3ncsc3c2)s1 10 µM [inhibitor, partial curve]
Cc1ccc(C2(C)NC(=O)N(CC(=O)N3CCN(C(=O)c4cccs4)CC3)C2=O)cc1 (stereo not given) 79.4 µM [inhibitor, single point]

Ordered by length of the SMILES (ascending): part of the list above.
Potency, inconclusive:
O=C(Cc1ccccc1)N1CCC(O)(c2cccnc2)CC1 39.8 µM [inhibitor, single point]
CC(Sc1nc(N)cc(=O)[nH]1)C(=O)N1CCOCC1 (stereo not given) 100 µM [inhibitor, single point]
COc1ccc(N=C2NC(=O)/C(=C\C=C\c3ccco3)S2)cc1 6.31 µM [inhibitor, full curve, poor fit]
CCOC(=O)c1sc(NC(=O)C2C3C=CC(C3)C2C(=O)O)nc1C (stereo not given) 50.1 µM [inhibitor, partial curve]
Cc1ccc(C(=O)N/N=C/c2cccc(OC(=O)/C=C/c3ccco3)c2)cn1 28.2 µM [inhibitor, full curve, poor fit]
